PubChem BioAssay AID1259308, NCATS, 2017

- Test: 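Genes whose loss raises luciferase production in HEK293 cells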 (primary screen)
- Cell system: human HEK293 embryonic kidney cells stably expressing firefly luciferase (HEK-CMV-Luc2-Hygro)
- Knock-down reagent: single siRNA against human genes, 0.8 pmol siRNA per well
- Timing: 72 h
- Measured: 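Luciferase light (ONE-Glo) measured on one replicate plate set and viability (CellTiter-Glo) on the other, scaled to a negative control siRNA, with robust z-scores and luciferase per cell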
- Reading the numbers: total luciferase, z-score and total luciferase, % of control: higher = more reporter protein produced; luciferase per cell, z-score: higher = more reporter output per viable cell; viable cells, % of control: higher = more viable cells
- Call rule: 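Active when the median/MAD z-score for overall luciferase is greater than 3; a gene was taken forward for validation with new siRNAs if at least two of its three siRNAs passed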
- Meaning of the calls: active = raised luciferase; inactive = no rise
In all, the deposit lists about 59,000 reagents; this is an unselected part. Of all reagents, about 1,510 (2.6%) were called active. 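Calls use total luciferase alone and ignore viability, so some active siRNAs may act by altering cell number.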 Entries without a mark were called inactive. Reagents against one gene are numbered here.

| gene symbol | reagent no. | total luciferase, z-score | total luciferase, % of control | luciferase per cell, z-score | viable cells, % of control |
| --- | --- | --- | --- | --- | --- |
| EEPD1 | 1 | -0.579 | 70.4 | 0.609 | 67 |
| EEPD1 | 2 | -0.1 | 79.9 | 0.285 | 82.8 |
| EEPD1 | 3 | 0.341 | 88.7 | -0.162 | 103 |
| CCDC120 | 1 | 0.531 | 92.4 | 0.566 | 89 |
| CCDC120 | 2 | -0.832 | 65.3 | -0.81 | 90.4 |
| CCDC120 | 3 | -0.929 | 63.4 | -0.659 | 84.3 |
| KIR3DX1 | 1 | -1.54 | 51.2 | -1.04 | 75.3 |
| KIR3DX1 | 2 | 1.68 | 115 | 0.883 | 102 |
| KIR3DX1 | 3 | 1.41 | 110 | 1.15 | 90.6 |
| PCBP1-AS1 | 1 | 1.81 | 118 | 1.65 | 85.5 |
| PCBP1-AS1 | 2 | -1.14 | 59.2 | -0.478 | 75.1 |
| PCBP1-AS1 | 3 | -1.55 | 51 | -1.94 | 95 |
| PSMB1 | 1 | -0.893 | 64.1 | -0.713 | 86.4 |
| PSMB1 | 2 | 3.54 (active) | 152 | 2.99 | 77.5 |
| PSMB1 | 3 | 0.863 | 99 | 1.95 | 66.2 |
| SELENBP1 | 1 | 0.514 | 92.1 | -0.277 | 111 |
| SELENBP1 | 2 | 0.275 | 87.4 | 0.348 | 89.1 |
| SELENBP1 | 3 | 0.331 | 88.5 | -0.803 | 122 |
| MGAT4B | 1 | -0.703 | 67.9 | -0.0213 | 76.3 |
| MGAT4B | 2 | 0.306 | 88 | 0.0518 | 97 |
| MGAT4B | 3 | 4.32 (active) | 168 | 1.85 | 115 |
| GPRIN1 | 1 | 2.42 | 130 | 1.55 | 96.6 |
| GPRIN1 | 2 | -0.813 | 65.7 | -0.839 | 91.6 |
| GPRIN1 | 3 | 0.896 | 99.7 | -0.432 | 125 |
| NMNAT1 | 1 | -0.117 | 79.6 | 0.625 | 75.4 |
| NMNAT1 | 2 | -1.26 | 56.9 | -0.523 | 73 |
| NMNAT1 | 3 | -0.547 | 71 | -1.02 | 104 |
| SUMF2 | 1 | 0.131 | 84.5 | -0.154 | 98.3 |
| SUMF2 | 2 | -0.614 | 69.7 | -0.224 | 82.6 |
| SUMF2 | 3 | 1.19 | 106 | 0.728 | 97.4 |
| PIGW | 1 | 0.0384 | 82.7 | -0.261 | 98.9 |
| PIGW | 2 | 0.507 | 92 | 0.354 | 93.6 |
| PIGW | 3 | -1.08 | 60.4 | -0.934 | 86.4 |
| BSND | 1 | 1.56 | 113 | 1.26 | 90.7 |
| BSND | 2 | -0.241 | 77.1 | -0.0871 | 88.1 |
| BSND | 3 | 1.98 | 121 | 1.98 | 80.4 |
| ENPP4 | 1 | -0.263 | 76.7 | -0.6 | 100 |
| ENPP4 | 2 | 3.02 (active) | 142 | 2.28 | 87.1 |
| ENPP4 | 3 | 0.0032 | 82 | -0.985 | 119 |
| KDM4B | 1 | -0.482 | 72.3 | -0.943 | 104 |
| KDM4B | 2 | 0.59 | 93.6 | 0.53 | 91 |
| KDM4B | 3 | 0.278 | 87.4 | 0.446 | 86.9 |
| MS4A10 | 1 | 0.345 | 88.7 | -0.196 | 104 |
| MS4A10 | 2 | -3.07 | 20.8 | -3.85 | 64.1 |
| MS4A10 | 3 | -0.0407 | 81.1 | -0.491 | 103 |
| HLA-B | 1 | 0.257 | 87 | 0.227 | 91.6 |
| HLA-B | 2 | 1.6 | 114 | 2.17 | 71.9 |
| HLA-B | 3 | -0.206 | 77.8 | -0.0973 | 89.2 |
| HLA-B | 4 | -0.907 | 63.8 | -0.56 | 82.7 |
| HLA-B | 5 | 0.529 | 92.4 | 0.787 | 83.9 |
| HLA-B | 6 | 1.5 | 112 | 0.724 | 103 |
| CSKMT | 1 | 0.313 | 88.1 | 1.09 | 73.9 |
| CSKMT | 2 | -0.298 | 76 | 0.0664 | 83.4 |
| CSKMT | 3 | 2.32 | 128 | 1.17 | 105 |
| SEC22A | 1 | 1.71 | 116 | 0.625 | 110 |
| SEC22A | 2 | -2.51 | 32.1 | -3.78 | 96.9 |
| SEC22A | 3 | 2.27 | 127 | 1.27 | 102 |
| C5orf15 | 1 | 0.576 | 93.3 | 0.883 | 82.7 |
| C5orf15 | 2 | 0.0559 | 83 | -0.0439 | 93.8 |
| C5orf15 | 3 | 2.33 | 128 | 1.29 | 102 |
| MTURN | 1 | 0.45 | 90.8 | 0.191 | 96.5 |
| MTURN | 2 | 0.427 | 90.4 | 0.455 | 89.6 |
| MTURN | 3 | -0.358 | 74.8 | 0.187 | 79.5 |
| MAGEB16 | 1 | 0.417 | 90.2 | 0.213 | 95.3 |
| MAGEB16 | 2 | 0.203 | 85.9 | 0.877 | 76.2 |
| MAGEB16 | 3 | -1.58 | 50.6 | -0.67 | 67.4 |
| NBPF6 | 1 | 1.16 | 105 | 1.82 | 72.6 |
| NBPF6 | 2 | -0.697 | 68 | -0.921 | 96.9 |
| NBPF6 | 3 | -0.1 | 79.9 | -0.498 | 102 |
| SERPINA2 | 1 | 1.16 | 105 | 0.478 | 103 |
| SERPINA2 | 2 | -0.318 | 75.6 | -0.0758 | 86.1 |
| SERPINA2 | 3 | 0.863 | 99.1 | 0.402 | 99.6 |
| SPDYE3 | 1 | 2.62 | 134 | 1.92 | 90.2 |
| SPDYE3 | 2 | -1.92 | 43.6 | -1.16 | 66.2 |
| SPDYE3 | 3 | 0.116 | 84.2 | -0.399 | 105 |
